Assay results from the supplement of paper PMC4862054.
Most values lie at the level of the controls, where differences are scatter.

Tests used:
Experiment in all cases: normalised response (% of control), CellTox Green; higher = less cell death (100 = DMSO, 0 = benzethonium chloride kill control)
Conditions in all cases: incubation time: 72 h
MCF-10A = tested on: MCF-10A
Description: (§1)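 DSRT, 72 h incubation, CellTox Green / CellTiter-Glo readout. Signal is normalised to DMSO and benzethonium chloride controls. Value is the normalised response at the lowest tested concentration.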

CAL-120 = tested on: CAL-120
Description: as §1

MDA-MB-231 = tested on: MDA-MB-231
Description: as §1

DU-4475 = tested on: DU-4475
Description: as §1

MDA-MB-453 = tested on: MDA-MB-453
Description: as §1

HCC1143 = tested on: HCC1143
Description: as §1

HDQ-P1 = tested on: HDQ-P1
Description: as §1

Hs578T = tested on: Hs578T
Description: as §1

HCC1937 = tested on: HCC1937
Description: as §1

MDA-MB-468 = tested on: MDA-MB-468
Description: as §1

BT-549 = tested on: BT-549
Description: as §1

CAL-85-1 = tested on: CAL-85-1
Description: as §1

BT-474 = tested on: BT-474
Description: as §1

CAL-148 = tested on: CAL-148
Description: as §1

MFM-223 = tested on: MFM-223
Description: as §1

HCC1599 = tested on: HCC1599
Description: as §1

CAL-51 = tested on: CAL-51
Description: as §1

MDA-MB-436 = tested on: MDA-MB-436
Description: as §1

Row | SMILES | normalised response (MCF-10A) [%] | normalised response (CAL-120) [%] | normalised response (MDA-MB-231) [%] | normalised response (DU-4475) [%] | normalised response (MDA-MB-453) [%] | normalised response (HCC1143) [%] | normalised response (HDQ-P1) [%] | normalised response (Hs578T) [%] | normalised response (HCC1937) [%] | normalised response (MDA-MB-468) [%] | normalised response (BT-549) [%] | normalised response (CAL-85-1) [%] | normalised response (BT-474) [%] | normalised response (CAL-148) [%] | normalised response (MFM-223) [%] | normalised response (HCC1599) [%] | normalised response (CAL-51) [%] | normalised response (MDA-MB-436) [%]
1 | CCCc1cc(C)[nH]c(=O)c1CNC(=O)c1cc(-c2ccnc(N3CCN(C)CC3)c2)cc2c1cnn2C(C)C [GSK343] (1 nM) | 96.5 | 96.4 | 101 | 96.6 | 101 | 130 | 97.2 | 89.9 | 93.7 | 90.4 | 95.1 | 106 | 97.5 | 86 | 98.8 | 104 | 94.3 | 
2 | Cn1cc(C2=Nc3cc(NC(=O)C(N)C4CCCCC4)cc4c3C2=CNNC4=O)cn1 (configuration not stated) (1 nM) | 96.7 | 100 | 96.7 | 94.7 | 93.6 | 111 | 87.7 | 107 | 66.6 | 89.9 | 102 | 95.1 | 84.2 | 85 | 81.1 | 91.1 | 102 | 
3 | NC(=O)c1cccc2cn(-c3ccc([C@@H]4CCCNC4)cc3)nc12 [MK-4827] (1 nM) | 79.8 | 96.3 | 91.2 | 100 | 111 | 109 | 85.5 | 108 |  | 95.5 | 95 | 99.7 | 102 | 96.1 | 100 | 81.3 | 94 | 96.1
4 | Cc1cnc(NC(=O)Nc2cc(Br)c(C)cc2OC[C@@H]2CNCCO2)cn1 [Rabusertib] (0.1 nM) | 109 | 106 | 115 | 107 | 110 | 112 | 90.3 | 102 | 115 | 104 | 98.6 | 106 | 99.9 | 106 | 104 | 109 | 121 | 
5 | N#Cc1ccc(COC[C@H]2O[C@@H](n3c(NCc4ccc(Cl)c(Cl)c4)nc4c(N)ncnc43)[C@H](O)[C@@H]2O)cc1 (1 nM) |  | 99 | 112 | 102 | 116 | 63.2 | 98 | 114 | 109 | 110 | 106 | 112 | 100 | 93.7 | 91.6 | 98.8 | 112 | 95.8
6 | O=C(O)CCCCC(CCSCc1ccccc1)SCc1ccccc1 (configuration not stated) [CPI-613] (1 nM) | 102 | 101 | 117 | 103 | 90.8 | 117 | 78.5 | 105 |  | 110 | 85 | 103 | 99.1 | 94.6 | 96.8 | 102 | 99 | 106
